Assay results reported in PubChem BioAssay AID330 (DTP/NCI, 2004).
The list shows only some results of the screen, not a fair sample: it is rich in T/C values a quarter to a half above the control, in often repeated tests (any T/C) and in doses without a T/C. Further doses and runs are listed elsewhere. T/C: endpoint of the treated group in % of that of the vehicle group. Some entries give survivors of the animals treated and no T/C: the source files T/C as zero there, which appears to mark a toxic dose or a test without result, not a measured value. Some survivor counts are full or nearly so, which does not show that the dose was tolerated: survival well below the control is almost never listed, so the zero probably covers shortened survival too. Survivors were counted at the toxicity check, usually on the fifth day, unless a day is given; later deaths do not show. Schedule codes are those of the source, read here as Q, the interval in days (D) or hours (H), X, the number of doses. Some entries hold several experiments; the values are given in rising order. Where survival is the endpoint, this PubChem deposit counts one and a half times the control or more as active, and values a quarter to a half above the control carry no call in these data; other NCI protocols may use other cut-offs.

System: P388 leukemia ip, CD2F1 mice, survival T/C
Assay: NCI In Vivo Anticancer Drug Screen. Data for tumor model P388 Leukemia (intraperitoneal) in CD2F1 (CDF1) mice
Conditions: T/C endpoint: median survival time, higher T/C = longer survival
[1] = dose: 200.0 mg/kg/injection, schedule: Q01DX001 (ip), vehicle: Klucel (hydroxypropylcellulose) (HPC)
[2] = dose: 400.0 mg/kg/injection, schedule: Q01DX001 (ip), vehicle: Klucel (hydroxypropylcellulose) (HPC)
[3] = dose: 240.0 mg/kg/injection, schedule: Q01DX005 (ip), vehicle: Klucel (hydroxypropylcellulose) (HPC)
[4] = dose: 3.13 mg/kg/injection, schedule: Q01DX009 (ip), vehicle: saline with Tween-80
[5] = dose: 200.0 mg/kg/injection, schedule: Q01DX005 (ip), vehicle: saline with Tween-80
[6] = dose: 100.0 mg/kg/injection, schedule: Q01DX005 (ip), vehicle: Klucel (hydroxypropylcellulose) (HPC)
[7] = dose: 50.0 mg/kg/injection, schedule: Q01DX009 (ip), vehicle: saline with Tween-80
[8] = dose: 100.0 mg/kg/injection, schedule: Q01DX009 (ip), vehicle: saline with Tween-80
[9] = dose: 200.0 mg/kg/injection, schedule: Q01DX009 (ip), vehicle: saline with Tween-80
[10] = dose: 100.0 mg/kg/injection, schedule: Q04DX003 (ip), vehicle: saline with Tween-80
[11] = dose: 200.0 mg/kg/injection, schedule: Q04DX003 (ip), vehicle: saline with Tween-80
[12] = dose: 400.0 mg/kg/injection, schedule: Q04DX003 (ip), vehicle: saline with Tween-80
[13] = dose: 25.0 mg/kg/injection, schedule: Q01DX009 (ip), vehicle: saline with Tween-80

O=C1C(N2CC2)=C(N2CC2)C(=O)C(N2CC2)=C1N1CC1
survivor count (dose: 0.5 mg/kg/injection, schedule: Q04DX003 (ip), vehicle: saline with Tween-80): 5 of 6 | survivor count (dose: 1.0 mg/kg/injection, schedule: Q04DX003 (ip), vehicle: saline with Tween-80): 6 of 6 | survivor count (dose: 2.0 mg/kg/injection, schedule: Q04DX003 (ip), vehicle: saline with Tween-80): 2 of 6 | T/C (dose: 6.0 micrograms/kg/injection, schedule: Q01DX009 (ip), vehicle: saline): 128 % of control

CC(=O)NCCNC(Cc1ccccc1)C(=O)O (stereo not drawn)
survivor count [1]: 1 of 6 | survivor count [2]: 0 of 6

N#C/C(=N\NC(=O)c1cccc(C(=O)N/N=C(\C#N)c2ccccc2Cl)n1)c1ccccc1Cl
survivor count (dose: 12.5 mg/kg/injection, schedule: Q01DX005 (ip), vehicle: saline with Tween-80): 6 of 6 | survivor count (dose: 25.0 mg/kg/injection, schedule: Q01DX005 (ip), vehicle: saline with Tween-80): 6 of 6 | survivor count (dose: 50.0 mg/kg/injection, schedule: Q01DX005 (ip), vehicle: saline with Tween-80): 6 of 6 | survivor count (dose: 100.0 mg/kg/injection, schedule: Q01DX005 (ip), vehicle: saline with Tween-80): 6 of 6

CC1(C)SC(C)(c2ccco2)N(c2nccs2)C1=O (stereo not drawn)
survivor count [3]: 1 of 6

Cc1ccc(S(=O)(=O)N=S(C)(C)=O)cc1
T/C (dose: 0.51 mg/kg/injection, schedule: Q01DX009 (ip), vehicle: saline with Tween-80): 136 % of control | T/C (dose: 0.78 mg/kg/injection, schedule: Q01DX009 (ip), vehicle: saline with Tween-80): 133 and 134 % of control | T/C (dose: 1.17 mg/kg/injection, schedule: Q01DX009 (ip), vehicle: saline with Tween-80): 133 % of control | T/C [4]: 94, 100, 114 % of control | survivor count [4]: 6 of 6

CCNC(=O)OCc1c(-c2ccccc2)nc2n1CCS2
survivor count (dose: 25.0 mg/kg/injection, schedule: Q01DX001 (ip), vehicle: Klucel (hydroxypropylcellulose) (HPC)): 6 of 6 | survivor count (dose: 100.0 mg/kg/injection, schedule: Q01DX001 (ip), vehicle: Klucel (hydroxypropylcellulose) (HPC)): 0 of 6 and 5 of 6 | survivor count [1]: 0 of 6 | survivor count [2]: 0 of 6

CC1CCC(SC2CC(=O)CCC2=O)CC1 (stereo not drawn)
survivor count [5]: 1 of 5 | survivor count (dose: 400.0 mg/kg/injection, schedule: Q01DX005 (ip), vehicle: saline with Tween-80): 0 of 5

COC(=O)C1=CCC[C@H]2C1(C)CCC(C)C21CC(c2ccoc2)OC1=O (stereo partly drawn)
survivor count [6]: 3 of 4

O=S(=O)(Nc1nccs1)c1ccc(Nc2c3ccccc3nc3ncccc23)cc1
survivor count (dose: 240.0 mg/kg/injection, schedule: Q01DX005 (ip), vehicle: saline with Tween-80): 6 of 6

CN1CC(C(=O)O)=Nc2c1nc(N)[nH]c2=O
survivor count [7]: 6 of 6 | survivor count [8]: 0 of 6 | survivor count [9]: 0 of 6

COC(=O)[C@@]12OC[C@@]34[C@@H](CC5=C(C)C(=O)C(O)=C[C@]5(C)[C@H]3[C@@H](O)[C@@H]1O)OC(=O)[C@H](OC(=O)/C=C(\C)C(C)(C)OC(C)=O)[C@@H]24
T/C (dose: 1.0 mg/kg/injection, schedule: Q01DX009 (ip), vehicle: saline + alcohol): 126 and 135 % of control | T/C (dose: 2.0 mg/kg/injection, schedule: Q01DX009 (ip), vehicle: saline + alcohol): 135 and 148 % of control

CC(=O)CC(C)=O.CCN(CC)CC[C-]=O.[Pd+2]
survivor count (dose: 50.0 mg/kg/injection, schedule: Q04DX003 (ip), vehicle: other): 0 of 4 | survivor count (dose: 100.0 mg/kg/injection, schedule: Q04DX003 (ip), vehicle: other): 0 of 4 | survivor count (dose: 200.0 mg/kg/injection, schedule: Q04DX003 (ip), vehicle: other): 0 of 4

CCC(N)Cc1cc(OC)c(C)cc1OC (stereo not drawn)
survivor count [8]: 4 of 6 | survivor count [9]: 0 of 6

Cc1ncc(/C=C/C(=O)O)c(C=O)c1O
survivor count [10]: 0 of 6 | survivor count [11]: 0 of 6 | survivor count [12]: 0 of 6

CCC[n+]1c(/C=C/c2c(OC)cc(OC)cc2OC)ccc2ccccc21
survivor count (dose: 12.5 mg/kg/injection, schedule: Q01DX009 (ip), vehicle: saline with Tween-80): 0 of 6 | survivor count [13]: 0 of 6 | survivor count [7]: 0 of 6

CCN1C=C/C(=C\C=C/c2cc[n+](CC)c3ccccc23)c2ccccc21
T/C (dose: 0.5 mg/kg/injection, schedule: Q04DX003 (ip), vehicle: saline): 136 % of control

COc1ccccc1[N+]([O-])=NC#N
survivor count (dose: 50.0 mg/kg/injection, schedule: Q04DX003 (ip), vehicle: Klucel (hydroxypropylcellulose) (HPC)): 0 of 6 | survivor count (dose: 100.0 mg/kg/injection, schedule: Q04DX003 (ip), vehicle: Klucel (hydroxypropylcellulose) (HPC)): 0 of 6 | survivor count (dose: 200.0 mg/kg/injection, schedule: Q04DX003 (ip), vehicle: Klucel (hydroxypropylcellulose) (HPC)): 0 of 6

CC(=O)NC(=O)CCCCCCC(=O)NC(C)=O
survivor count [6]: 6 of 6 | survivor count (dose: 200.0 mg/kg/injection, schedule: Q01DX005 (ip), vehicle: Klucel (hydroxypropylcellulose) (HPC)): 6 of 6 | survivor count (dose: 400.0 mg/kg/injection, schedule: Q01DX005 (ip), vehicle: Klucel (hydroxypropylcellulose) (HPC)): 5 of 6

O=C1C2C3C=CC(C2C(=O)N1CO)C1C2C(=O)N(CO)C(=O)C2C31 (stereo not drawn)
T/C [13]: 140 % of control | survivor count [8]: 3 of 6 | survivor count (dose: 100.0 mg/kg/injection, schedule: Q01DX009 (ip), vehicle: water): 0 of 6 | survivor count [9]: 0 of 6

CC1C(=O)OC2C1CCC1(C)CCC(=O)C(C)C21 (stereo not drawn)
survivor count (dose: 200.0 mg/kg/injection, schedule: Q04DX002 (ip), vehicle: saline with Tween-80): 2 of 6 | survivor count (dose: 400.0 mg/kg/injection, schedule: Q04DX002 (ip), vehicle: saline with Tween-80): 0 of 6

CC1(C)C=C(NC(=O)N2CC2)C(C)(C)N1O
survivor count [8]: 3 of 6 | survivor count [9]: 0 of 6

COc1ccc(C2=C(C#N)C(=C(C#N)C#N)NC(N)=C2C#N)cc1
survivor count [3]: 0 of 6

Cc1cccc(O)c1C(=O)OC(C)c1cccc2nc3c(C(=O)O)cccc3nc12 (stereo not drawn)
T/C (dose: 25.0 mg/kg/injection, schedule: Q01DX005 (ip), vehicle: DMSO): 130 % of control | survivor count (dose: 50.0 mg/kg/injection, schedule: Q01DX005 (ip), vehicle: DMSO): 0 of 6

[Cu+2].[O-][Cl+3]([O-])([O-])O.[O-][n+]1c2ccccc2nc2ccccc21
survivor count [10]: 3 of 6 | survivor count [11]: 0 of 6 | survivor count [12]: 0 of 6

CCN(CC)CCCC(C)NCC(O)c1cc(-c2ccc(Cl)cc2)nc2ccccc12 (stereo not drawn)
survivor count [5]: 0 of 5

Cc1cccc(Cl)c1NC(=O)CN(C)CCN1CCCC1
survivor count (dose: 240.0 mg/kg/injection, schedule: Q01DX005 (ip), vehicle: saline): 0 of 6
